Values joined by “and” are separate entries in the source; they are usually repeats but may differ in a detail not shown here. Identical values can stand only once. The list shows a part of the results. Each value is one well over the wells without odorant, computed here; the data are noisy.
What follows are compounds tested on pseudo clone 1419 (assay: odorant receptor activation (CRE luciferase / Renilla) (fold of no-odor wells); higher = more activation). Settings: 100 µM.
Compound `CCC(C)=O` [2-butanone] has an odorant receptor activation of 0.967. `CS` [methanethiol] showed an odorant receptor activation of 1.16. With `CCOc1cc(C=O)ccc1O` [ethyl vanillin] the odorant receptor activation was 1.3 and 1.23. With `CCCCOC(C)=O` [butyl acetate] the odorant receptor activation was 0.334.

— the odorant receptor screen of Mainland et al. (2015)
